Where a SMILES comes first, the peptide text is derived from it. The star is where a group is joined. FITC = O=C1OC2(c3ccc(O)cc3Oc3cc(O)ccc32)c2ccc(NC(=S)*)cc21
System: HeLa cells and Du145 cells
Test: Fluorescent microscopy of FITC-labeled peptide localization
Format: cell-based, human

Compound: CSCC[C@H](NC(=O)[C@@H]1CCCN1C(=O)[C@@H](NC(=S)Nc1ccc2c(c1)C(=O)OC21c2ccc(O)cc2Oc2cc(O)ccc21)C(C)C)C(=O)N[C@@H](CC(C)C)C(=O)N[C@@H](CCCCN)C(=O)O [FITC-labeled BIP] ({FITC}-VPMLK-OH; N-terminus and C-terminus assumed)
- Subcellular localization of the peptide (Bax-deficient Du145 cells): distributed in both the cytosol and the nucleus
- Subcellular localization of the peptide (HeLa cells): localized mostly in the cytosol

From patent US7314866B2, “Ku-70-derived Bax-suppressing peptides and use thereof for the protection of damaged cells” (Bloodcenter of Wisconsin, Inc., priority 2002, dated 2008)
